{"source": "PubChem BioAssay AID504786 (Drosophila RNAi Screening Center, 2011)", "purpose": "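Fly genes required for HIF-dependent transcription when hypoxia is mimicked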 (primary screen)", "cell system": "Drosophila S2 cells with a stable HIF luciferase reporter", "reagent": "long dsRNA against Drosophila genes, about 0.2 µg dsRNA per well of a 384-well plate", "time to read-out": "three days of knock-down, then 20 h of DFO before reading", "challenge": "desferrioxamine (DFO) at 100 µM, an iron chelator that mimics hypoxia, for 20 h", "measured": "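HIF reporter luminescence in cells given 100 µM DFO for 20 h, using the mouse ldh-a hypoxia-response element, scored as per-plate z-scores; higher means greater loss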", "direction": "z-score: higher = stronger loss of HIF reporter signal", "note": "In all, the deposit lists about 21,000 reagents; shown is a random part of those that have a named target and a result. 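Primary screen; positive scores mean lost reporter signal, so the sign may be inverted from the usual convention.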"}
{"gene": "CG5255", "amplicon": "DRSC15754", "z-score, replicate 1": -0.4, "z-score, replicate 2": -0.1}
{"gene": "CG15382", "amplicon": "DRSC00397", "z-score, replicate 1": 0, "z-score, replicate 2": 0}
{"gene": "TfIIA-S-2", "amplicon": "DRSC17791", "z-score, replicate 1": -0.3, "z-score, replicate 2": -0.5}
{"gene": "CG32302", "amplicon": "DRSC08340", "z-score, replicate 1": -0.3, "z-score, replicate 2": -0.5}
{"gene": "Aldh7A1 (Aldehyde dehydrogenase 7 family member A1)", "amplicon": "DRSC11083", "z-score, replicate 1": -0.2, "z-score, replicate 2": -0.3}
{"gene": "CG13744", "amplicon": "DRSC06415", "z-score, replicate 1": -0.4, "z-score, replicate 2": -0.6}
{"gene": "Rev1 (DNA polymerase Rev1)", "amplicon": "DRSC08264", "z-score, replicate 1": 0, "z-score, replicate 2": 0.1}
{"gene": "vanin-like", "amplicon": "DRSC17440", "z-score, replicate 1": -0.2, "z-score, replicate 2": -0.2}
{"gene": "CG14260", "amplicon": "DRSC14755", "z-score, replicate 1": 0, "z-score, replicate 2": -0.8}
{"gene": "CG10621", "amplicon": "DRSC02078", "z-score, replicate 1": -0.3, "z-score, replicate 2": -0.1}
{"gene": "CG34169", "amplicon": "DRSC01579", "z-score, replicate 1": 0.1, "z-score, replicate 2": 1.3}
{"gene": "CG15728", "amplicon": "DRSC19694", "z-score, replicate 1": -0.2, "z-score, replicate 2": 0.3}
{"gene": "CG12129", "amplicon": "DRSC06105", "z-score, replicate 1": -0.3, "z-score, replicate 2": -0.4}
{"gene": "CG15258", "amplicon": "DRSC02478", "z-score, replicate 1": -0.1, "z-score, replicate 2": -0.1}
{"gene": "CG16957", "amplicon": "DRSC02545", "z-score, replicate 1": -0.3, "z-score, replicate 2": -0.6}
{"gene": "CG12278", "amplicon": "DRSC14494", "z-score, replicate 1": 2.9, "z-score, replicate 2": 0.9}

Laid out differently: results already given.
Aldh7A1 (Aldehyde dehydrogenase 7 family member A1) [DRSC11083] → z-score, replicate 1 = -0.2; z-score, replicate 2 = -0.3
CG13744 [DRSC06415] → z-score, replicate 1 = -0.4; z-score, replicate 2 = -0.6
